Among the data in the supplement of paper PMC10735217 are TEAD-luciferase reporter activity values, retold here.

Structures can show the parent of a compound that is named as a salt. This is one part of the list. This data set is noisy: repeats of one test often differ as much as different tests do.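 The human kidney-derived cells carry a stably integrated construct of eight TEAD-binding elements driving luciferase, read by luminescence in a drug-repurposing library screen. A compound counts as a hit when its signal is more than five robust Z scores above the plate mean.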

This experiment deals with HEK293A TEAD-LUC reporter. Briefly: TEAD-luciferase reporter activity (YAP activation), robust Z score vs plate; higher = stronger YAP/TEAD activation. The note with it: 24 h. For orientation: In a reporter assay the amount or activity of a reporter protein is the signal.

For `OCC(O)C(O)C(O)CO` (stereo not drawn) [Xylitol], the TEAD-luciferase reporter activity is, setting by setting: (compound concentration: 200 nM) inactive: -1.23; (compound concentration: 2 uM) inactive: -1.82; (compound concentration: 10 uM) inactive: -1.62.

With `C[C@](N)(Cc1ccc(O)c(O)c1)C(=O)O` [Methyldopa], the TEAD-luciferase reporter activity (compound concentration: 200 nM) is inactive: -0.377, the TEAD-luciferase reporter activity (compound concentration: 2 uM) is inactive: -1.19 and the TEAD-luciferase reporter activity (compound concentration: 10 uM) was inactive: -0.898.

With `CC1(C)OC[C@H]([C@@H](CS(=O)(=O)c2ccc(Oc3ccc(OC(F)(F)F)cc3)cc2)N(O)C=O)O1`, the TEAD-luciferase reporter activity was inactive: -0.846 (compound concentration: 200 nM), inactive: -1.18 (compound concentration: 2 uM) and inactive: 0.112 (compound concentration: 10 uM).

With `CC(CCc1ccc(C(N)=O)cc1)N(C[C@H](O)c1ccccc1)C[C@H](O)c1ccccc1` (stereo partly drawn), the TEAD-luciferase reporter activity (compound concentration: 200 nM) was inactive: 1.06, the TEAD-luciferase reporter activity (compound concentration: 2 uM) is inactive: -0.477 and the TEAD-luciferase reporter activity (compound concentration: 10 uM) is inactive: 0.511.

On to `CNC(=O)[C@H](Cc1ccccc1)NC(=O)[C@H](CC(C)C)[C@H](CSc1cccs1)C(=O)NO` [Batimastat], for which the TEAD-luciferase reporter activity (compound concentration: 200 nM) is inactive: -0.305, the TEAD-luciferase reporter activity (compound concentration: 2 uM) was inactive: -0.0898 and the TEAD-luciferase reporter activity (compound concentration: 10 uM) was inactive: -0.854.

As for `COC(=O)[C@H](C/C=C/c1ccc(N(C)c2ncccn2)cc1)NC(=O)c1ccccc1Cl`, the TEAD-luciferase reporter activity is inactive: -0.818 (compound concentration: 200 nM), inactive: 0.12 (compound concentration: 2 uM) and inactive: 0.89 (compound concentration: 10 uM).

Consider `Cc1c(CCCC(=O)O)cc(O)c(O)c1C`, for which the TEAD-luciferase reporter activity (compound concentration: 200 nM) is inactive: -0.659, the TEAD-luciferase reporter activity (compound concentration: 2 uM) was inactive: 1.69 and the TEAD-luciferase reporter activity (compound concentration: 10 uM) is inactive: -0.786.

For the compound `CCCCN(CCCC)C(=O)CN1C[C@H](c2ccc3c(c2)OCO3)[C@@H](C(=O)O)[C@@H]1c1ccc(OC)cc1` [atrasentan], the TEAD-luciferase reporter activity is, setting by setting: (compound concentration: 200 nM) inactive: -2.61; (compound concentration: 2 uM) inactive: 2.6; (compound concentration: 10 uM) inactive: 0.216.

On to `C[C@@H]1C[C@H]2[C@@H]3C[C@H](F)C4=CC(=O)C=CC4(C)[C@@]3(F)[C@@H](O)CC2(C)[C@@]1(O)C(=O)SC1CCOC1=O` (stereo partly drawn) [Zoticasone], for which the TEAD-luciferase reporter activity is inactive: -1.52 (compound concentration: 200 nM), inactive: 2.39 (compound concentration: 2 uM) and inactive: 3.22 (compound concentration: 10 uM).

In the case of `CN(C)C[C@]1(c2ccc(Cl)c(Cl)c2)CC[C@](C)(O)CC1`, the TEAD-luciferase reporter activity was inactive: -1.36 (compound concentration: 200 nM), inactive: -1.93 (compound concentration: 2 uM) and inactive: 0.0184 (compound concentration: 10 uM).

Regarding `NC/C(=C/F)CCc1ccc(F)cc1` [Mofegiline hydrochloride], the TEAD-luciferase reporter activity is inactive: -0.653 (compound concentration: 200 nM), inactive: -1.15 (compound concentration: 2 uM) and inactive: 0.394 (compound concentration: 10 uM).

For `COc1ccc(CN2CCC(N3CCCNC3=O)CC2)cc1`, the TEAD-luciferase reporter activity is, setting by setting: (compound concentration: 200 nM) inactive: -0.926; (compound concentration: 10 uM) inactive: 3.96.

In the case of `CCOC(=O)N1CCN(C(=O)[C@H](Cc2cccc(C(=N)N)c2)NS(=O)(=O)c2c(C(C)C)cc(C(C)C)cc2C(C)C)CC1`, the TEAD-luciferase reporter activity by setting is: (compound concentration: 200 nM) inactive: -0.0838; (compound concentration: 2 uM) inactive: -0.867; (compound concentration: 10 uM) inactive: 0.321.

With `N[C@H](C(=O)O)c1ccc(O)cc1` [Oxfenicine], the TEAD-luciferase reporter activity (compound concentration: 200 nM) was inactive: -0.0724, the TEAD-luciferase reporter activity (compound concentration: 2 uM) is inactive: 0.361 and the TEAD-luciferase reporter activity (compound concentration: 10 uM) is inactive: -0.0993.

Take `CC(=C/C(=O)O)/C(=C/c1ccc2cc3c(cc2c1)C(C)(C)CCC3(C)C)c1cccc(C(=O)O)c1`: the TEAD-luciferase reporter activity (compound concentration: 200 nM) was inactive: 4.11, the TEAD-luciferase reporter activity (compound concentration: 2 uM) was inactive: -0.702 and the TEAD-luciferase reporter activity (compound concentration: 10 uM) is inactive: -1.86.

In the case of `CCOc1nnc(-c2cc(C(C)(C)C)c(O)c(C(C)(C)C)c2)s1`, the TEAD-luciferase reporter activity was inactive: 1.6 (compound concentration: 200 nM), inactive: 0.00982 (compound concentration: 2 uM) and inactive: 0.669 (compound concentration: 10 uM).

On to `O=C(O)[C@H](Oc1cccc(C(F)(F)F)c1)c1ccc(Cl)cc1`, for which the TEAD-luciferase reporter activity was inactive: 0.28 (compound concentration: 200 nM), inactive: -0.957 (compound concentration: 2 uM) and inactive: 1.47 (compound concentration: 10 uM).

Regarding `CCn1ncc2c(NC3CCOCC3)c(-c3nnc(Cc4sc(C)nc4C)o3)cnc21`, the TEAD-luciferase reporter activity is inactive: -0.394 (compound concentration: 200 nM), inactive: 0.83 (compound concentration: 2 uM) and inactive: -0.916 (compound concentration: 10 uM).

For `CC(=O)Oc1c(C)c(C)c2c(c1C)CC[C@@](C)(CCC[C@H](C)CCC[C@H](C)CCCC(C)C)O2` [Vitamin E acetate], the TEAD-luciferase reporter activity (compound concentration: 200 nM) was inactive: -0.65, the TEAD-luciferase reporter activity (compound concentration: 2 uM) was inactive: -0.133 and the TEAD-luciferase reporter activity (compound concentration: 10 uM) was inactive: 3.24.

As for `COC(=O)N/N=C/c1c[n+]([O-])c2ccccc2[n+]1[O-]` [Carbadox], the TEAD-luciferase reporter activity is inactive: -0.246 (compound concentration: 200 nM) and inactive: 1.64 (compound concentration: 10 uM).

In the case of `COc1cc2c(cc1OC)C(C)N(Cc1ccc(C)cc1)CC2` (stereo not drawn), the TEAD-luciferase reporter activity is inactive: -0.308 (compound concentration: 200 nM), inactive: -0.819 (compound concentration: 2 uM) and inactive: -0.725 (compound concentration: 10 uM).

As for `CCN(CC)CCO/N=C(\c1ccco1)c1ccc(OC)c(Cl)c1Cl` [Diclofurime], the TEAD-luciferase reporter activity was inactive: -0.36 (compound concentration: 200 nM), inactive: 0.224 (compound concentration: 2 uM) and inactive: -1.22 (compound concentration: 10 uM).

Take `CN(CCCN1C(=O)CSC1c1cc(C(C)(C)C)c(O)c(C(C)(C)C)c1)CCOc1ccc2c(c1)OCO2` (stereo not drawn): the TEAD-luciferase reporter activity is inactive: -0.589 (compound concentration: 200 nM), inactive: -1.33 (compound concentration: 2 uM) and inactive: 1.02 (compound concentration: 10 uM).

`COC(=O)C[C@](O)(CCCC(C)(C)O)C(=O)O[C@@H]1C(OC)=C[C@]23CCCN2CCc2cc4c(cc2[C@H]13)OCO4` [Homoharringtonine]: the TEAD-luciferase reporter activity (compound concentration: 2 uM) is inactive: -3.7.

On to `COC(=O)C[C@](O)(CCCC(C)(C)O)C(=O)O[C@@H]1C(OC)=C[C@]23CCCN2CCc2cc4c(cc2[C@H]13)OCO4`, for which the TEAD-luciferase reporter activity is inactive: 2.19 (compound concentration: 200 nM) and inactive: -0.594 (compound concentration: 10 uM).

For the compound `CCCCCCC(=O)OCCN1CCN(CCCN2c3ccccc3Sc3ccc(C(F)(F)F)cc32)CC1`, the TEAD-luciferase reporter activity runs as follows: (compound concentration: 200 nM) inactive: -0.818; (compound concentration: 2 uM) inactive: 0.727; (compound concentration: 10 uM) inactive: -0.697.
